Record: PubChem BioAssay AID1224828 (NIAID, 2016)

Purpose: 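Knock-downs that increase or decrease LPS-induced p65 nuclear translocation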 (primary screen)
Cells: mouse RAW264.7 G9 macrophage reporter cells (GFP-p65, Tnf promoter-mCherry)
Reagents: siRNA pool against mouse genes, 100 nM
Timing: 2 days siRNA transfection, then 40 min LPS before fixation
Conditions: LPS (Salmonella minnesota R595) at 10 ng/ml
Read-out: 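Microscopy ratio of nuclear to perinuclear-ring GFP-p65 signal, scaled to the plate median; gene score is the average of two replicate robust z-scores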
Reading the numbers: p65 translocation robust z-score: higher = more nuclear NF-kappaB p65 after LPS than the plate median; nuclear/cytoplasmic p65 ratio: higher = more nuclear NF-kappaB p65
Hit rule: 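Called active when z exceeds 3.3 or falls under -1.56 (median of Tlr4 controls), giving activity score of at least 50; no calls for control wells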
Meaning of the calls: active = hit (p65 shift raised or lowered); inactive = no clear change
The deposit covers about 17,000 reagents; this is a random part of them. Over the whole deposit, 762 (4.5%) were called active. 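Active calls include both raised and lowered p65 entry, mostly lowered; wells with fewer than 50 cells lack a z-score.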 Raw values are not corrected between plates. Unmarked entries are inactive. Reagent sequences are not shown.

| Target gene | p65 translocation robust z-score | nuclear/cytoplasmic p65 ratio, rep 1 | nuclear/cytoplasmic p65 ratio, rep 2 | low cell count flag |
| --- | --- | --- | --- | --- |
| Stard13 (StAR related lipid transfer domain containing 13) | -0.64 | 1.32 | 1.17 | enough cells to score |
| Cd86 (CD86 antigen) | -1.55 | 1.47 | 1.18 | enough cells to score |
| Cabcoco1 (ciliary associated calcium binding coiled-coil 1) | – | 1.22 | 1.34 | fewer than 50 cells per well; well left out of scoring |
| Maoa (monoamine oxidase A) | -0.09 | 1.41 | 1.35 | enough cells to score |
| Sf3b1 (splicing factor 3b, subunit 1) | – | 1.2 | 1.03 | fewer than 50 cells per well; well left out of scoring |
| Med24 (mediator complex subunit 24) | -0.33 | 1.33 | 1.61 | enough cells to score |
| Tspan31 (tetraspanin 31) | -0.79 | 1.46 | 1.35 | enough cells to score |
| Or6c2 (olfactory receptor family 6 subfamily C member 2) | -0.47 | 1.36 | 1.21 | enough cells to score |
| Gcsam (germinal center associated, signaling and motility) | 0 | 1.58 | 1.47 | enough cells to score |
| H1f7 (H1.7 linker histone) | -0.13 | 1.3 | 1.48 | enough cells to score |
| Rbl2 (RB transcriptional corepressor like 2) | – | 1.6 | 1.53 | fewer than 50 cells per well; well left out of scoring |
| Snap29 (synaptosomal-associated protein 29) | – | 1.67 | 1.44 | fewer than 50 cells per well; well left out of scoring |
| Necab1 (N-terminal EF-hand calcium binding protein 1) | 0 | 1.41 | 1.41 | enough cells to score |
| Mak16 (MAK16 homolog) | 2.29 | 1.46 | 2.01 | enough cells to score |
| Adra2b (adrenergic receptor, alpha 2b) | 0.27 | 1.6 | 1.56 | enough cells to score |
| Or4f61 (olfactory receptor family 4 subfamily F member 61) | 2.73 | 1.99 | 1.81 | enough cells to score |
| Slc10a4 | -2.12 (active) | 1.21 | 1.07 | enough cells to score |
| Notum (notum palmitoleoyl-protein carboxylesterase) | 0.99 | 1.49 | 1.6 | enough cells to score |
| Dpagt1 (dolichyl-phosphate N-acetylglucosaminephosphotransferase 1) | – | 1.39 | 1.44 | fewer than 50 cells per well; well left out of scoring |
| Dzank1 (double zinc ribbon and ankyrin repeat domains 1) | 1.71 | 1.73 | 1.59 | enough cells to score |
| Slc37a2 | 0.32 | 1.44 | 1.29 | enough cells to score |
| 1700129L13RIK | -3.27 (active) | 1.46 | 0.995 | enough cells to score |
| Mettl9 (methyltransferase like 9) | 0.23 | 1.47 | 1.58 | enough cells to score |
| Ephb1 (Eph receptor B1) | – | 1.43 | 1.08 | fewer than 50 cells per well; well left out of scoring |
| Zfp277 (zinc finger protein 277) | – | 1.11 | 1.05 | fewer than 50 cells per well; well left out of scoring |
| Mastl (microtubule associated serine/threonine kinase-like) | 0.36 | 1.76 | 1.41 | enough cells to score |
| Ppp2r5b (protein phosphatase 2, regulatory subunit B', beta) | 0.9 | 1.64 | 1.5 | enough cells to score |
| Tenm3 (teneurin transmembrane protein 3) | 0.18 | 1.39 | 1.51 | enough cells to score |
| A430085C19 (retired record) | -1.23 | 1.21 | 1.36 | enough cells to score |
| Zfp282 (zinc finger protein 282) | – | 0 | 0 | fewer than 50 cells per well; well left out of scoring |
| 1700041G16Rik (RIKEN cDNA 1700041G16 gene) | 0.94 | 1.31 | 1.54 | enough cells to score |
| Cyp17a1 (cytochrome P450, family 17, subfamily a, polypeptide 1) | 0.99 | 1.63 | 1.49 | enough cells to score |
| Caprin1 (cell cycle associated protein 1) | 1.26 | 1.83 | 1.73 | enough cells to score |
| Slc7a7 | -0.58 | 1.42 | 1.45 | enough cells to score |
| Rps6ka6 (ribosomal protein S6 kinase A6) | – | 1.67 | 1.29 | fewer than 50 cells per well; well left out of scoring |
| Ifi209 (interferon activated gene 209) | 0.14 | 1.69 | 1.64 | enough cells to score |
| Hspbp1 | -0.53 | 1.5 | 1.56 | enough cells to score |
| Syt1 (synaptotagmin I) | 1.25 | 1.61 | 1.85 | enough cells to score |
| Dnajc8 (DnaJ heat shock protein family (Hsp40) member C8) | 2.19 | 1.79 | 1.62 | enough cells to score |
| Pla2g2c (phospholipase A2, group IIC) | 0.9 | 1.52 | 1.32 | enough cells to score |

Entries listed above with an active call, once more:
| Target gene | p65 translocation robust z-score | nuclear/cytoplasmic p65 ratio, rep 1 | nuclear/cytoplasmic p65 ratio, rep 2 | low cell count flag |
| --- | --- | --- | --- | --- |
| Slc10a4 | -2.12 (active) | 1.21 | 1.07 | enough cells to score |
| 1700129L13RIK | -3.27 (active) | 1.46 | 0.995 | enough cells to score |
